Measured values from paper PMC12520357 (2025).
Results are given in words; binding and its absence hold for the method and conditions named. Binding seen in cells or lysates may run through a third protein. Some binding calls cover weakened binding; strength is not graded here. Where a sequence is shown, tags or fusion partners need not be part of it.

Chains of the proteins cited; added tags and fusions are not shown.
UniProt P32598: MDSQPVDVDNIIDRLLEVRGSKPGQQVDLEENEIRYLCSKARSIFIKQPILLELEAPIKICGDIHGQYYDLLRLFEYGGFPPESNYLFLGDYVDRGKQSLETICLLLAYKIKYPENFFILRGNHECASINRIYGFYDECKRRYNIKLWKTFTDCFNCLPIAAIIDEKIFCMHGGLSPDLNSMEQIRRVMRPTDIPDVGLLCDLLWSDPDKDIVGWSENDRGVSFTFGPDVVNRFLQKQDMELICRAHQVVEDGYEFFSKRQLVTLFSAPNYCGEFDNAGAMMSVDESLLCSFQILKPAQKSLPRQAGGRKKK

T1: Reg1-A54T-FLAG (S. cerevisiae) (UniProt Q00816)
T1 sequence: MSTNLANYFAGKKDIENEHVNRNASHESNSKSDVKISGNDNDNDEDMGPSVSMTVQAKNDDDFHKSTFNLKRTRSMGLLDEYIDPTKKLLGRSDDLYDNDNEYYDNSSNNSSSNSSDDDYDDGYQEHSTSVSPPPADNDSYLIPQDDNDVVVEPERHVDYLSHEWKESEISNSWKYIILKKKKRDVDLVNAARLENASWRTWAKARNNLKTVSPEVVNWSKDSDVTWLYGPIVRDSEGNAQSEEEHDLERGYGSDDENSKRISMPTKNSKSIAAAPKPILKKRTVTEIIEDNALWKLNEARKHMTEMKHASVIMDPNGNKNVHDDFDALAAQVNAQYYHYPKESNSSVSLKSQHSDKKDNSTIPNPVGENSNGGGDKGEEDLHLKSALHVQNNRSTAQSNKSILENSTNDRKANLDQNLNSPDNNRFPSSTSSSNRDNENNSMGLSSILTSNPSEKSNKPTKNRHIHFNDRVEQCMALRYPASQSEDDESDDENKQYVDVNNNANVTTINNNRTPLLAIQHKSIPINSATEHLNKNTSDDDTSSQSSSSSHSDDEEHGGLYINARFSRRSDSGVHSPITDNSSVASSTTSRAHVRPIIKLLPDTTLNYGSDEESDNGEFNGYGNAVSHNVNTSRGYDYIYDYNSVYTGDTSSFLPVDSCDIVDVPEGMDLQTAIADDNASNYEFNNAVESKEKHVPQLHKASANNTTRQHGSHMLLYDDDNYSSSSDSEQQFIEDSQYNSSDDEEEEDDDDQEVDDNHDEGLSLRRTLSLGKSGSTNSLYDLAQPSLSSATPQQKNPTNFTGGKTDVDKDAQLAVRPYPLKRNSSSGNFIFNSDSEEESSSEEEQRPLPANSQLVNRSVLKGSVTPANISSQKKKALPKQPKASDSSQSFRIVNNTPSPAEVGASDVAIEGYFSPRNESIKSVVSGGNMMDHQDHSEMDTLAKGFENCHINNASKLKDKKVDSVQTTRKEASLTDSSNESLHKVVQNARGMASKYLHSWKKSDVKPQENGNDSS

T2: Reg1-FLAG (wild type) (S. cerevisiae) (UniProt Q00816)
T2 sequence: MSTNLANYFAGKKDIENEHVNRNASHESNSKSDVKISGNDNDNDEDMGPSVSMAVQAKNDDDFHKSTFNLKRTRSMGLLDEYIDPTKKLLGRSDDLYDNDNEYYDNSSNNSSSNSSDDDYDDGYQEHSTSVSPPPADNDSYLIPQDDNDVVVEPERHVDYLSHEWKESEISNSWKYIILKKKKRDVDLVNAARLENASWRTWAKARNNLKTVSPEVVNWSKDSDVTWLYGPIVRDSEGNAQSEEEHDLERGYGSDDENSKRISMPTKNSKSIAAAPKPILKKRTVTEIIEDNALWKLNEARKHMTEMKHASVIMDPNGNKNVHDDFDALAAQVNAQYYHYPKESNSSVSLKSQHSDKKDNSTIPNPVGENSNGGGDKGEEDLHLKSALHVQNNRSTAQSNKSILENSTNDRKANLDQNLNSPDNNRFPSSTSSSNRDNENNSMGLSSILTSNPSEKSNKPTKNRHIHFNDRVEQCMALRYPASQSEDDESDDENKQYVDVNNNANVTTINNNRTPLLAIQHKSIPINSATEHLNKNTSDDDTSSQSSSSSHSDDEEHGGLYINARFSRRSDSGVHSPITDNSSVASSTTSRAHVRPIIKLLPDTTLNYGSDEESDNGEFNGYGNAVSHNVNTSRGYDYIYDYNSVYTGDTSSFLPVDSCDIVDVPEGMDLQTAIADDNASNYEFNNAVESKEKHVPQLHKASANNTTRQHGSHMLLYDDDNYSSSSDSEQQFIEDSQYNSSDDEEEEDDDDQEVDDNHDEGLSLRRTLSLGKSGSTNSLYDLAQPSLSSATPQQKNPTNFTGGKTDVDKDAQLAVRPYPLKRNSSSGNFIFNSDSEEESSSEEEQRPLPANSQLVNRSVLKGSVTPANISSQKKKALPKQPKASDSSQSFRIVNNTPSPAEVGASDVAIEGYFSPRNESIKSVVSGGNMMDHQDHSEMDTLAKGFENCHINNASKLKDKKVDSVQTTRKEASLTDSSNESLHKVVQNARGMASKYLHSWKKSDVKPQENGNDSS


Tests used:
[1] = target: T1, Reg1-A54T-FLAG (S. cerevisiae); experiment: co-IP; Reg1-FLAG precipitated on anti-FLAG M2 agarose from native yeast lysates (50 mM HEPES pH 7.5, 150 mM NaCl, 0.5% Triton X-100, 1 mM DTT, 10% glycerol), 1 h at 4°C; blots with anti-FLAG, anti-GFP (Glc7, Snf1) and anti-14-3-3; steady state
[2] = target: T2, Reg1-FLAG (wild type) (S. cerevisiae); experiment: as above

binding [1]	binding [2]	Molecule
binds	binds	Glc7-GFP (from UniProt P32598 1-312)
binds	binds	Snf1-GFP (protein, UniProt P06782 1-633) MSSNNNTNTAPANANSSHHHHHHHHHHHHHGHGGSNSTLNNPKSSLADGAHIGNYQIVKTLGEGSFGKVKLAYHTTTGQKVALKIINKKVLAKSDMQGRIEREISYLRLLRHPHIIKLYDVIKSKDEIIMVIEYAGNELFDYIVQRDKMSEQEARRFFQQIISAVEYCHRHKIVHRDLKPENLLLDEHLNVKIADFGLSNIMTDGNFLKTSCGSPNYAAPEVISGKLYAGPEVDVWSCGVILYVMLCRRLPFDDESIPVLFKNISNGVYTLPKFLSPGAAGLIKRMLIVNPLNRISIHEIMQDDWFKVDLPEYLLPPDLKPHPEEENENNDSKKDGSSPDNDEIDDNLVNILSSTMGYEKDEIYESLESSEDTPAFNEIRDAYMLIKENKSLIKDMKANKSVSDELDTFLSQSPPTFQQQSKSHQKSQVDHETAKQHARRMASAITQQRTYHQSPFMDQYKEEDSTVSILPTSLPQIHRANMLAQGSPAASKISPLVTKKSKTRWHFGIRSRSYPLDVMGEIYIALKNLGAEWAKPSEEDLWTIKLRWKYDIGNKTNTNEKIPDLMKMVIQLFQIETNNYLVDFKFDGWESSYGDDTTVSNISEDEMSTFSAYPFLHLTTKLIMELAVNSQSN
